{"source": "the supplement of paper PMC8728848", "binders": {"B1": {"name": "GS13814A-bth-462-26-462 (Bacteroides thetaiotaomicron) (protein)", "chain": "DDRDNLMVNDQIGLLHSTYTETEIFRGMDTPYQLFVIKSGKGKQETEVSISVDETVLQSYNTDNGTSIQLLPSDCYTILQPALRLNDSDYRKAFDIKWNADRLSDLLSTGKEYGLPIQMSVVQNFISADDERLKTIIVPTIKEPYLQMDVPGMSPVTDFMPTFGDLNERELFVKIRTNYSNDEDISFQIEVDPQLVIDYNTAHGTAYKMLPESSFTVDNKGVILTGMKETFIKIKYHKKGLIPEEGTYLFGDYVLPLRITSVSKYGISPDAASKLYTVKFQPDPIDKKGWSVIDFNNCCTQDGGWYLNMGWGVESLIDNNPGTQWLCRWDVKEPLPYYFVFDMGKEYTLFRFGFANPVAPAAHVWAGTSKAGYVEASIDNENWVKLKDWTSPKIGEPNVNMDVPATQARYIRFVITDTYPTYDGLRVSLGEVYAWGM"}}, "test_in_all_cases": "glycan array binding signal (z-score within array); higher = stronger binding", "conditions_in_all_cases": "glycan notation: IUPAC condensed, linker removed", "key": {"[1]": {"target": "Gal(b1-3)GlcNAc(b1-6)[Gal(b1-3)]GalNAc", "outline": "(§1)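 Negative Z-scores can be read as non-binding. The Z-score is calculated within each array and then averaged across arrays of one protein sequence at different concentrations or buffers and across linkers. Arrays, 3228 in all, were curated from the Consortium for Functional Glycomics database and kept only where the protein sequence was available.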"}, "Gal(b1-3)GlcNAc6S": {"target": "Gal(b1-3)GlcNAc6S", "outline": "as §1"}, "[2]": {"target": "Gal(b1-3)[Fuc(a1-4)]GlcNAc", "outline": "as §1"}, "[3]": {"target": "Gal(b1-3)[Fuc(a1-4)]GlcNAc(b1-2)Man", "outline": "as §1"}, "[4]": {"target": "Gal(b1-3)[Fuc(a1-4)]GlcNAc(b1-2)Man(a1-3)[Gal(b1-3)[Fuc(a1-4)]GlcNAc(b1-2)Man(a1-6)]Man(b1-4)GlcNAc(b1-4)[Fuc(a1-6)]GlcNAc", "outline": "as §1"}, "[5]": {"target": "Gal(b1-3)[Fuc(a1-4)]GlcNAc(b1-3)Gal(b1-3)[Fuc(a1-4)]GlcNAc", "outline": "as §1"}, "[6]": {"target": "Gal(b1-3)[Fuc(a1-4)]GlcNAc(b1-3)Gal(b1-4)[Fuc(a1-3)]GlcNAc", "outline": "as §1"}, "[7]": {"target": "Gal(b1-3)[Fuc(a1-4)]GlcNAc(b1-6)GalNAc", "outline": "as §1"}, "[8]": {"target": "Gal(b1-3)[GlcNAc(b1-6)]GalNAc", "outline": "as §1"}, "[9]": {"target": "Gal(b1-3)[Neu5Ac(a2-6)]GalNAc", "outline": "as §1"}, "[10]": {"target": "Gal(b1-3)[Neu5Ac(a2-6)]GlcNAc(b1-4)Gal(b1-4)Glc", "outline": "as §1"}, "[11]": {"target": "Gal(b1-3)[Neu5Ac(b2-6)]GalNAc", "outline": "as §1"}, "Gal(b1-4)Gal": {"target": "Gal(b1-4)Gal", "outline": "as §1"}, "[12]": {"target": "Gal(b1-4)GalNAc(a1-3)[Fuc(a1-2)]Gal(b1-4)GlcNAc", "outline": "as §1"}, "[13]": {"target": "Gal(b1-4)GalNAc(b1-3)[Fuc(a1-2)]Gal(b1-4)GlcNAc", "outline": "as §1"}, "Gal(b1-4)Glc": {"target": "Gal(b1-4)Glc", "outline": "as §1"}, "Gal(b1-4)Glc6S": {"target": "Gal(b1-4)Glc6S", "outline": "as §1"}, "Gal(b1-4)GlcNAc": {"target": "Gal(b1-4)GlcNAc", "outline": "as §1"}, "[14]": {"target": "Gal(b1-4)GlcNAc(a1-6)Gal(b1-4)GlcNAc", "outline": "as §1"}, "Gal(b1-4)GlcNAc(b1-2)Man": {"target": "Gal(b1-4)GlcNAc(b1-2)Man", "outline": "as §1"}, "[15]": {"target": "Gal(b1-4)GlcNAc(b1-2)Man(a1-3)Man(b1-4)GlcNAc(b1-4)GlcNAc", "outline": "as §1"}, "[16]": {"target": "Gal(b1-4)GlcNAc(b1-2)Man(a1-3)[Gal(b1-4)GlcNAc(b1-2)Man(a1-6)]Man(b1-4)GlcNAc(b1-4)GlcNAc", "outline": "as §1"}, "[17]": {"target": "Gal(b1-4)GlcNAc(b1-2)Man(a1-3)[Gal(b1-4)GlcNAc(b1-2)Man(a1-6)]Man(b1-4)GlcNAc(b1-4)[Fuc(a1-6)]GlcNAc", "outline": "as §1"}, "[18]": {"target": "Gal(b1-4)GlcNAc(b1-2)Man(a1-3)[Gal(b1-4)GlcNAc(b1-2)Man(a1-6)][Gal(b1-4)GlcNAc(b1-4)]Man(b1-4)GlcNAc(b1-4)[Fuc(a1-6)]GlcNAc", "outline": "as §1"}, "[19]": {"target": "Gal(b1-4)GlcNAc(b1-2)Man(a1-3)[Gal(b1-4)GlcNAc(b1-2)Man(a1-6)][GlcNAc(b1-4)]Man(b1-4)GlcNAc(b1-4)[Fuc(a1-6)]GlcNAc", "outline": "as §1"}, "[20]": {"target": "Gal(b1-4)GlcNAc(b1-2)Man(a1-3)[GlcNAc(b1-2)Man(a1-6)]Man(b1-4)GlcNAc(b1-4)GlcNAc", "outline": "as §1"}, "[21]": {"target": "Gal(b1-4)GlcNAc(b1-2)Man(a1-3)[GlcNAc(b1-4)][Gal(b1-4)GlcNAc(b1-2)Man(a1-6)]Man(b1-4)GlcNAc(b1-4)GlcNAc", "outline": "as §1"}, "[22]": {"target": "Gal(b1-4)GlcNAc(b1-2)Man(a1-3)[Man(a1-6)]Man(b1-4)GlcNAc(b1-4)GlcNAc", "outline": "as §1"}, "[23]": {"target": "Gal(b1-4)GlcNAc(b1-2)Man(a1-6)Man(b1-4)GlcNAc(b1-4)GlcNAc", "outline": "as §1"}, "[24]": {"target": "Gal(b1-4)GlcNAc(b1-2)Man(a1-6)[GlcNAc(b1-2)Man(a1-3)]Man(b1-4)GlcNAc(b1-4)GlcNAc", "outline": "as §1"}, "[25]": {"target": "Gal(b1-4)GlcNAc(b1-2)Man(a1-6)[Man(a1-3)]Man(b1-4)GlcNAc(b1-4)GlcNAc", "outline": "as §1"}, "[26]": {"target": "Gal(b1-4)GlcNAc(b1-2)[Gal(b1-4)GlcNAc(b1-4)]Man(a1-3)[Gal(b1-4)GlcNAc(b1-2)Man(a1-6)]Man(b1-4)GlcNAc(b1-4)GlcNAc", "outline": "as §1"}, "[27]": {"target": "Gal(b1-4)GlcNAc(b1-2)[Gal(b1-4)GlcNAc(b1-4)]Man(a1-3)[Gal(b1-4)GlcNAc(b1-2)[Gal(b1-4)GlcNAc(b1-6)]Man(a1-6)]Man(b1-4)GlcNAc(b1-4)GlcNAc", "outline": "as §1"}, "[28]": {"target": "Gal(b1-4)GlcNAc(b1-2)[Gal(b1-4)GlcNAc(b1-4)]Man(a1-3)[GlcNAc(b1-4)][Gal(b1-4)GlcNAc(b1-2)Man(a1-6)]Man(b1-4)GlcNAc(b1-4)GlcNAc", "outline": "as §1"}, "[29]": {"target": "Gal(b1-4)GlcNAc(b1-2)[Gal(b1-4)GlcNAc(b1-4)]Man(a1-3)[GlcNAc(b1-4)][Gal(b1-4)GlcNAc(b1-2)[Gal(b1-4)GlcNAc(b1-6)]Man(a1-6)]Man(b1-4)GlcNAc(b1-4)GlcNAc", "outline": "as §1"}, "[30]": {"target": "Gal(b1-4)GlcNAc(b1-2)[Gal(b1-4)GlcNAc(b1-6)]Man(a1-6)[Gal(b1-4)GlcNAc(b1-2)Man(a1-3)]Man(b1-4)GlcNAc(b1-4)GlcNAc", "outline": "as §1"}, "[31]": {"target": "Gal(b1-4)GlcNAc(b1-2)[Gal(b1-4)GlcNAc(b1-6)]Man(a1-6)[Gal(b1-4)GlcNAc(b1-2)Man(a1-3)]Man(b1-4)GlcNAc(b1-4)[Fuc(a1-6)]GlcNAc", "outline": "as §1"}}, "note": "Some of the results follow."}
{"binder": "B1", "values": [{"measurement": "glycan array binding signal (z-score)", "setting": "[1]", "result": -0.731}, {"measurement": "glycan array binding signal (z-score)", "setting": "Gal(b1-3)GlcNAc6S", "result": -0.103}, {"measurement": "glycan array binding signal (z-score)", "setting": "[2]", "result": 0.914}, {"measurement": "glycan array binding signal (z-score)", "setting": "[3]", "result": 0.146}, {"measurement": "glycan array binding signal (z-score)", "setting": "[4]", "result": 0.517}, {"measurement": "glycan array binding signal (z-score)", "setting": "[5]", "result": -0.115}, {"measurement": "glycan array binding signal (z-score)", "setting": "[6]", "result": 0.434}, {"measurement": "glycan array binding signal (z-score)", "setting": "[7]", "result": 0.892}, {"measurement": "glycan array binding signal (z-score)", "setting": "[8]", "result": 0.276}, {"measurement": "glycan array binding signal (z-score)", "setting": "[9]", "result": 0.296}, {"measurement": "glycan array binding signal (z-score)", "setting": "[10]", "result": -0.34}, {"measurement": "glycan array binding signal (z-score)", "setting": "[11]", "result": -0.165}, {"measurement": "glycan array binding signal (z-score)", "setting": "Gal(b1-4)Gal", "result": 0.445}, {"measurement": "glycan array binding signal (z-score)", "setting": "[12]", "result": -0.741}, {"measurement": "glycan array binding signal (z-score)", "setting": "[13]", "result": -0.743}, {"measurement": "glycan array binding signal (z-score)", "setting": "Gal(b1-4)Glc", "result": -0.68}, {"measurement": "glycan array binding signal (z-score)", "setting": "Gal(b1-4)Glc6S", "result": -0.019}, {"measurement": "glycan array binding signal (z-score)", "setting": "Gal(b1-4)GlcNAc", "result": -0.268}, {"measurement": "glycan array binding signal (z-score)", "setting": "[14]", "result": -0.7}, {"measurement": "glycan array binding signal (z-score)", "setting": "Gal(b1-4)GlcNAc(b1-2)Man", "result": -0.506}, {"measurement": "glycan array binding signal (z-score)", "setting": "[15]", "result": -0.455}, {"measurement": "glycan array binding signal (z-score)", "setting": "[16]", "result": -0.931}, {"measurement": "glycan array binding signal (z-score)", "setting": "[17]", "result": -0.779}, {"measurement": "glycan array binding signal (z-score)", "setting": "[18]", "result": -0.543}, {"measurement": "glycan array binding signal (z-score)", "setting": "[19]", "result": 0.472}, {"measurement": "glycan array binding signal (z-score)", "setting": "[20]", "result": -1.08}, {"measurement": "glycan array binding signal (z-score)", "setting": "[21]", "result": -0.313}, {"measurement": "glycan array binding signal (z-score)", "setting": "[22]", "result": 0.653}, {"measurement": "glycan array binding signal (z-score)", "setting": "[23]", "result": -0.692}, {"measurement": "glycan array binding signal (z-score)", "setting": "[24]", "result": -0.712}, {"measurement": "glycan array binding signal (z-score)", "setting": "[25]", "result": -0.951}, {"measurement": "glycan array binding signal (z-score)", "setting": "[26]", "result": -0.756}, {"measurement": "glycan array binding signal (z-score)", "setting": "[27]", "result": -0.258}, {"measurement": "glycan array binding signal (z-score)", "setting": "[28]", "result": -0.417}, {"measurement": "glycan array binding signal (z-score)", "setting": "[29]", "result": 0.127}, {"measurement": "glycan array binding signal (z-score)", "setting": "[30]", "result": -0.611}, {"measurement": "glycan array binding signal (z-score)", "setting": "[31]", "result": -0.543}]}
